PubChem BioAssay AID256 (DTP/NCI, 2004)
The list is a part of this screen's results and no random one: it is rich in T/C values a quarter to a half above the control, in often repeated tests (any T/C) and in doses without a T/C. Further doses and runs are listed elsewhere. T/C gives the treated animals as a percentage of the vehicle group. Some doses have a count of surviving animals in place of a T/C: the source holds a T/C of zero for them, seemingly a mark for toxic or unscored doses. Some survivor counts are full or nearly so, which does not show that the dose was tolerated: the source hardly ever lists a survival T/C far under the control, and the zero likely stands for such cases as well. Survivors were counted at the toxicity check, usually on the fifth day, unless a day is given; later deaths do not show. Schedules are NCI's codes, taken here to give the interval after Q, in days (D) or hours (H), and the number of doses after X. Some doses were run more than once; the results are listed from low to high. Brackets with × stand for listed records that agree. Where survival is the endpoint, the PubChem record calls one and a half times the control and up active, and a quarter to a half above the control has no call in these data; cut-offs in other NCI protocols can differ. Some T/C values carry the count of animals alive at the toxicity check (mostly the fifth day); without a count, all were alive then.

Test system: CD2F1 mice, L1210 leukemia ip, survival T/C
Assay: NCI In Vivo Anticancer Drug Screen. Data for tumor model L1210 Leukemia (intraperitoneal) in CD2F1 (CDF1) mice
Conditions: higher T/C = longer survival
In short: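 In this screen, transplantable tumors were grown in mice given either the compound or its vehicle. Results were expressed as the treated measurement relative to the control measurement.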

[1] = T/C endpoint: median survival time, dose: 6.4 mg/kg/injection, schedule: Q04DX003 (ip), vehicle: water
[2] = T/C endpoint: mean survival time, dose: 100.0 mg/kg/injection, schedule: Q04DX003 (ip), vehicle: saline with Tween-80
[3] = T/C endpoint: mean survival time, dose: 200.0 mg/kg/injection, schedule: Q04DX003 (ip), vehicle: saline with Tween-80
[4] = T/C endpoint: mean survival time, dose: 400.0 mg/kg/injection, schedule: Q04DX003 (ip), vehicle: saline with Tween-80
[5] = T/C endpoint: mean survival time, dose: 200.0 mg/kg/injection, schedule: Q04DX003 (ip), vehicle: saline
[6] = T/C endpoint: mean survival time, dose: 400.0 mg/kg/injection, schedule: Q04DX003 (ip), vehicle: saline
[7] = T/C endpoint: mean survival time, dose: 400.0 mg/kg/injection, schedule: Q01DX001 (ip), vehicle: saline with Tween-80
[8] = T/C endpoint: mean survival time, dose: 100.0 mg/kg/injection, schedule: Q01DX001 (ip), vehicle: saline with Tween-80
[9] = T/C endpoint: mean survival time, dose: 200.0 mg/kg/injection, schedule: Q01DX001 (ip), vehicle: saline with Tween-80
[10] = T/C endpoint: mean survival time, dose: 200.0 mg/kg/injection, schedule: Q04DX002 (ip), vehicle: saline
[11] = T/C endpoint: mean survival time, dose: 400.0 mg/kg/injection, schedule: Q04DX002 (ip), vehicle: saline
[12] = T/C endpoint: mean survival time, dose: 400.0 mg/kg/injection, schedule: Q01DX009 (ip), vehicle: saline with Tween-80

With `CC(C)(C[NH-])C[NH-].[Cl][Pt+2][Cl]` the T/C (T/C endpoint: median survival time, dose: 0.4 mg/kg/injection, schedule: Q04DX003 (ip), vehicle: water, evaluated on day 30) was 120, 121, 122, 127 % of control, the T/C (T/C endpoint: median survival time, dose: 0.4 mg/kg/injection, schedule: Q04DX003 (ip), vehicle: water, evaluated on day 60) was 126, 130, 136 % of control and the T/C (T/C endpoint: median survival time, dose: 0.8 mg/kg/injection, schedule: Q04DX003 (ip), vehicle: water, evaluated on day 30) was 132, 142, 160, 205 % of control. The T/C (T/C endpoint: median survival time, dose: 0.8 mg/kg/injection, schedule: Q04DX003 (ip), vehicle: water, evaluated on day 60) was 139, 142, 150 % of control, the T/C (T/C endpoint: median survival time, dose: 1.6 mg/kg/injection, schedule: Q04DX003 (ip), vehicle: water, evaluated on day 30) was 158, 162, 264, 361 % of control and the T/C (T/C endpoint: median survival time, dose: 1.6 mg/kg/injection, schedule: Q04DX003 (ip), vehicle: water, evaluated on day 60) was 170, 195, 204 % of control. The survivor count (T/C endpoint: median survival time, dose: 3.12 mg/kg/injection, schedule: Q04DX003 (ip), vehicle: distilled water + Tween-80) was 6 of 6, the T/C (T/C endpoint: median survival time, dose: 3.2 mg/kg/injection, schedule: Q04DX003 (ip), vehicle: water, evaluated on day 30) was 138 and 167 % of control and the T/C (T/C endpoint: median survival time, dose: 3.2 mg/kg/injection, schedule: Q04DX003 (ip), vehicle: water, evaluated on day 60) was 191, 201, 228 % of control. The survivor count (T/C endpoint: median survival time, dose: 3.2 mg/kg/injection, schedule: Q04DX003 (ip), vehicle: water) was 5 of 6 and 10 of 10, the survivor count (T/C endpoint: median survival time, dose: 6.25 mg/kg/injection, schedule: Q04DX003 (ip), vehicle: distilled water + Tween-80) was 4 of 6 and the T/C [1] was 104 % of control. The survivor count [1] was 5 of 6, 10 of 10 (2×), 6 of 6, the survivor count (T/C endpoint: median survival time, dose: 12.5 mg/kg/injection, schedule: Q04DX003 (ip), vehicle: distilled water + Tween-80) was 0 of 6 and the survivor count (T/C endpoint: median survival time, dose: 25.0 mg/kg/injection, schedule: Q04DX003 (ip), vehicle: distilled water + Tween-80) was 0 of 6. The survivor count (T/C endpoint: median survival time, dose: 50.0 mg/kg/injection, schedule: Q04DX003 (ip), vehicle: distilled water + Tween-80) was 0 of 6, the survivor count (T/C endpoint: median survival time, dose: 100.0 mg/kg/injection, schedule: Q04DX003 (ip), vehicle: distilled water + Tween-80) was 0 of 6 and the survivor count (T/C endpoint: median survival time, dose: 200.0 mg/kg/injection, schedule: Q04DX003 (ip), vehicle: distilled water + Tween-80) was 0 of 6.

`COC(=O)c1[nH]c2ccccc2c(=O)c1Cl` was tested, and the survivor count [2] was 0 of 6, the survivor count [3] was 0 of 6 and the survivor count [4] was 0 of 6.

`O=C(CC(=O)OCc1ccc([N+](=O)[O-])cc1)OCc1ccc([N+](=O)[O-])cc1` was tested, and the survivor count (T/C endpoint: mean survival time, dose: 100.0 mg/kg/injection, schedule: Q01DX001 (ip), vehicle: Klucel (hydroxypropylcellulose) (HPC)) was 3 of 3.

With `CC(C#N)(Cc1ccccc1)Nc1ccccc1` (stereo unspecified) the survivor count [4] was 5 of 6.

In the case of `C=CCCCCCCCCC(=O)NCC[N+](C)(C)C`, the survivor count (T/C endpoint: mean survival time, dose: 100.0 mg/kg/injection, schedule: Q04DX003 (ip), vehicle: saline) is reported as 1 of 6, the survivor count [5] is reported as 0 of 6 and the survivor count [6] is reported as 0 of 6.

In the case of `COc1ccc(OC)c2[nH]c(=O)c(CCC(=O)O)nc12`, the survivor count [7] is reported as 0 of 6.

`CNNCCC(=O)NC(C)C` was tested, and the survivor count [6] was 1 of 6.

With `O=C(Nc1ccc(Cl)c(Cl)c1)Nc1c(Oc2ccc(Cl)c(Cl)c2)ccc(Cl)c1S(=O)(=O)O` the survivor count (T/C endpoint: mean survival time, dose: 50.0 mg/kg/injection, schedule: Q01DX009 (ip), vehicle: saline) was 6 of 6, the survivor count (T/C endpoint: mean survival time, dose: 100.0 mg/kg/injection, schedule: Q01DX009 (ip), vehicle: saline) was 6 of 6 and the survivor count (T/C endpoint: mean survival time, dose: 200.0 mg/kg/injection, schedule: Q01DX009 (ip), vehicle: saline) was 4 of 6. For the same compound, the survivor count [4] was 0 of 6.

With `O=C(c1ccccc1)C(Br)C(Br)c1ccccc1` (stereo unspecified) the survivor count [8] was 6 of 6.

For `Nc1cccc(OCC(O)CN2CCN(c3ccccc3)CC2)c1` (stereo unspecified), the T/C (T/C endpoint: mean survival time, dose: 200.0 mg/kg/injection, schedule: Q04DX002 (ip), vehicle: saline with Tween-80) was 130 % of control [2 of 3 alive] and the survivor count (T/C endpoint: mean survival time, dose: 400.0 mg/kg/injection, schedule: Q04DX002 (ip), vehicle: saline with Tween-80) was 1 of 3.

For `COC1OC(COC(C)=O)C(OC(C)=O)C(NC(=O)N(CCCl)N=O)C1OC(C)=O` (stereo unspecified), the survivor count [8] was 9 of 10, the survivor count (T/C endpoint: mean survival time, dose: 150.0 mg/kg/injection, schedule: Q01DX001 (ip), vehicle: saline with Tween-80) was 9 of 10 and the survivor count (T/C endpoint: mean survival time, dose: 225.0 mg/kg/injection, schedule: Q01DX001 (ip), vehicle: saline with Tween-80) was 7 of 10.

With `CC(C)N(C=C(C#N)C#N)C(C)C` the survivor count (T/C endpoint: mean survival time, dose: 50.0 mg/kg/injection, schedule: Q01DX009 (ip), vehicle: saline with Tween-80) was 1 of 6, the survivor count [8] was 0 of 6 and the survivor count [9] was 0 of 6. The survivor count [7] was 0 of 6.

In the case of `CC(C(=O)c1ccccc1)N(C)C` (stereo unspecified), the survivor count [5] is reported as 0 of 4 and the survivor count [6] is reported as 0 of 4.

For `CNNC(=O)OC`, the survivor count [10] was 5 of 6 and 3 of 3 and the survivor count [11] was 0 of 3.

In the case of `O=[N+]([O-])C1CC=CCC1C(Cl)(Cl)Cl` (stereo unspecified), the survivor count (T/C endpoint: mean survival time, dose: 20.0 mg/kg/injection, schedule: Q01DX009 (ip), vehicle: saline with Tween-80) is reported as 0 of 6, the survivor count [2] is reported as 0 of 6 and the survivor count [3] is reported as 0 of 6. For the same compound, the survivor count [4] was 0 of 6.

With `COC(=O)C1CN1C1=C(C)C(=O)C2=C(C1=O)C(COC(N)=O)C1(OC)C3NC3CN21` (stereo unspecified) the survivor count (T/C endpoint: median survival time, dose: 48.0 mg/kg/injection, schedule: Q01DX001 (ip), vehicle: water) was 5 of 6 and the survivor count (T/C endpoint: median survival time, dose: 96.0 mg/kg/injection, schedule: Q01DX001 (ip), vehicle: water) was 0 of 6.

With `Nc1cc(Cl)nnc1Cl` the survivor count [6] was 1 of 6.

In the case of `S=c1nc[nH]c2ccccc12`, the survivor count [4] is reported as 3 of 3 and 6 of 6.

For `O=C(Nc1cccc(O)c1)C1CC1`, the survivor count [7] was 2 of 6.

For `O/N=C1/C2CCC(C2)C1C(O)(C(F)(F)F)C(F)(F)F` (stereo unspecified), the survivor count [7] was 0 of 6.

For `COC(=O)c1ccc(N2C(=O)C=CC2=O)cc1`, the survivor count (T/C endpoint: mean survival time, dose: 6.0 mg/kg/injection, schedule: Q01DX009 (ip), vehicle: saline with Tween-80) was 6 of 6.

For `O=S1(=O)C2CCC(C2)C1Cl` (stereo unspecified), the survivor count [3] was 2 of 6 and the survivor count [4] was 0 of 6.

For `CC1(C)N=C(N)N=C(N)N1c1ccc(OCCCNC(=O)Nc2cccc(S(=O)(=O)F)c2)c(Cl)c1`, the T/C (T/C endpoint: mean survival time, dose: 150.0 mg/kg/injection, schedule: Q01DX009 (ip), vehicle: saline) was 138 % of control [5 of 6 alive] and the survivor count (T/C endpoint: mean survival time, dose: 300.0 mg/kg/injection, schedule: Q01DX009 (ip), vehicle: saline) was 3 of 6.

For `C=CCSc1cccc2ccccc12`, the survivor count [12] was 4 of 6.

In the case of `N#CN=[N+]([O-])c1ccc(C(=O)O)cc1`, the survivor count (T/C endpoint: median survival time, dose: 60.0 mg/kg/injection, schedule: Q01DX009 (ip), vehicle: Klucel (hydroxypropylcellulose) (HPC)) is reported as 0 of 10.

In the case of `c1ccc(CC23CN(C4CCCCC4)CC24N(c2ccccc23)C23CN(C5CCCCC5)CC2(Cc2ccccc2)c2ccccc2N43)cc1` (stereo unspecified), the survivor count [9] is reported as 6 of 6 and the survivor count [7] is reported as 6 of 6.

With `OCc1ccc(Cl)cc1Cl` the survivor count [12] was 3 of 6.

`CCC1CCCCN1C(=S)N/N=C(\C)c1ccccn1` (stereo unspecified) was tested, and the survivor count (T/C endpoint: median survival time, dose: 50.0 mg/kg/injection, schedule: Q01DX009 (ip), vehicle: saline with Tween-80) was 1 of 6 and the survivor count (T/C endpoint: median survival time, dose: 100.0 mg/kg/injection, schedule: Q01DX009 (ip), vehicle: saline with Tween-80) was 0 of 6.

`CN(C)N=Nc1cn[nH]c1C(N)=O` was tested, and the T/C (T/C endpoint: mean survival time, dose: 50.0 mg/kg/injection, schedule: Q01DX009 (ip), vehicle: Klucel (hydroxypropylcellulose) (HPC)) was 141 % of control and the T/C (T/C endpoint: mean survival time, dose: 200.0 mg/kg/injection, schedule: Q01DX009 (ip), vehicle: Klucel (hydroxypropylcellulose) (HPC)) was 131 % of control.

For `CN(C)c1ccc2nc(CC(O)(C(F)(F)F)C(F)(F)F)ccc2c1`, the survivor count [3] was 6 of 6 and the survivor count [4] was 6 of 6.

`COP1(=O)OCC(C(C)(C)C)CO1` (stereo unspecified) was tested, and the survivor count (T/C endpoint: mean survival time, dose: 50.0 mg/kg/injection, schedule: Q04DX002 (ip), vehicle: saline) was 0 of 3, the survivor count (T/C endpoint: mean survival time, dose: 100.0 mg/kg/injection, schedule: Q04DX002 (ip), vehicle: saline) was 3 of 3 and the survivor count [10] was 3 of 3. The survivor count [11] was 3 of 3.
